Laboratory results: PubChem BioAssay AID1508588 (Peter MacCallum Cancer Centre, 2020)
The whole screen tested about 18,000 reagents; below is a random part of them. In the full data, 790 (4.4%) were called active. 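Calls rest on a combination of fold-change classes in drug and vehicle arms, not all shown here.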

- Aim: 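Knock-downs boosting vemurafenib effects on melanoma cell growth or lactate release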 (primary screen)
- Cell system: human WM266.4 melanoma cells (BRAF V600 mutant)
- Knock-down reagent: siRNA pool against human genes, 40 nM
- Duration: 96 h from transfection to read-out
- Conditions: vemurafenib 300 nM (about IC25), added 48 h after transfection, for 48 h; comparison arm got DMSO vehicle only
- Read-out: 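Ratios to non-targeting siRNA for cell gain, counted as DAPI nuclei after minus before drug and averaged over two replicates, and for absorbance-read medium lactate per cell; both binned into fold-change classes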
- Scale: cell gain with vemurafenib: higher = more cell gain than with non-targeting siRNA; lactate per cell with vemurafenib: higher = more lactate made per cell
- Rule for the call: 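a knock-down counts as enhancing when its fold-change classes with vehicle and with vemurafenib, taken together, show a stronger drug effect on cell gain or lactate per cell; exact class pairs not stated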
- Calls: active = enhances vemurafenib effect; inactive = no enhancement seen

Target gene	cell gain with vemurafenib	lactate per cell with vemurafenib	Call
CSTPP1	0.03	0.24	inactive
ATP4A (ATPase H+/K+ transporting subunit alpha)	0.62	1.02	inactive
AAK1 (AP2 associated kinase 1)	0.15	0.54	active
IL12A (interleukin 12A)	0.83	0.58	inactive
IDI2 (isopentenyl-diphosphate delta isomerase 2)	0.81	0.96	inactive
MDM4 (MDM4 regulator of p53)	0.66	0.42	inactive
HMBOX1 (homeobox containing 1)	0.84	0.71	inactive
TRIT1 (tRNA isopentenyltransferase 1)	0.68	1.06	inactive
TBC1D25 (TBC1 domain family member 25)	0.03	2.51	inactive
NEK4 (NIMA related kinase 4)	0.57	1.36	inactive
TRIM22 (tripartite motif containing 22)	1.07	0.72	inactive
TTLL3 (tubulin tyrosine ligase like 3)	0.25	0.8	inactive
FBXO30 (F-box protein 30)	0.42	1.19	inactive
RNF126 (ring finger protein 126)	0.64	1.33	inactive
ERBB4 (erb-b2 receptor tyrosine kinase 4)	0.68	0.6	inactive
ENC1 (ectodermal-neural cortex 1)	0.7	0.62	inactive
PCOLCE (procollagen C-endopeptidase enhancer)	1	0.8	inactive
NPHS1 (NPHS1 adhesion molecule, nephrin)	0.71	0.44	active

A portion of the results above, as a working copy:
Target gene	cell gain with vemurafenib	lactate per cell with vemurafenib	Call
IDI2 (isopentenyl-diphosphate delta isomerase 2)	0.81	0.96	inactive
MDM4 (MDM4 regulator of p53)	0.66	0.42	inactive
HMBOX1 (homeobox containing 1)	0.84	0.71	inactive
TRIT1 (tRNA isopentenyltransferase 1)	0.68	1.06	inactive
TBC1D25 (TBC1 domain family member 25)	0.03	2.51	inactive
NEK4 (NIMA related kinase 4)	0.57	1.36	inactive

Next entries:
Target gene	cell gain with vemurafenib	lactate per cell with vemurafenib	Call
SNAPC3 (small nuclear RNA activating complex polypeptide 3)	0.66	0.74	inactive
ZFP69B (ZFP69 zinc finger protein B)	0.79	1.18	inactive
GPANK1 (G-patch domain and ankyrin repeats 1)	0.36	1.48	inactive
CMAS (cytidine monophosphate N-acetylneuraminic acid synthetase)	0.65	1.23	inactive
LGALS9 (galectin 9)	0.15	0.94	inactive
KRT78 (keratin 78)	0.3	1.32	inactive
GABRE (gamma-aminobutyric acid type A receptor subunit epsilon)	0.38	0.54	inactive
GABRA3 (gamma-aminobutyric acid type A receptor subunit alpha3)	0.78	0.82	inactive
CRB3 (crumbs cell polarity complex component 3)	0.22	0.86	inactive
SEC63 (SEC63 protein translocation regulator)	0.72	1.06	inactive
TRMT112 (tRNA methyltransferase activator subunit 11-2)	0.32	0.88	inactive
CCNJ (cyclin J)	0.7	0.56	inactive
AADACL4 (arylacetamide deacetylase like 4)	0.54	1.36	inactive
NFASC (neurofascin)	0.76	0.19	active
GPM6B (glycoprotein M6B)	0.73	0.62	inactive
TMEM161B (transmembrane protein 161B)	0.97	0.41	inactive
